Some results were stated once for a whole list of compounds, not compound by compound.
Assay: Solubility of the NIR sensitizers in paint base materials (polarization microscopy for undissolved crystals)
Format: physicochemical
Conditions: in both acrylate paint base materials Laromer LR 8863 and Laromer LR PO84F; stirred at room temperature at least 4 hours

| Structure (SMILES) | solubility [% by weight] |
| --- | --- |
| CCN1/C(=C/C=C2\CCCC(/C=C/C3=[N+](CC)c4ccc(C#N)cc4C3(C)C)=C2Cl)C(C)(C)c2cc(C#N)ccc21 [Compound B12] | < 0.1 |
| CN1\C(=C/C=C/C=C/C=C/C2=[N+](C)c3ccc(Cl)cc3C2(C)C)C(C)(C)c2cc(Cl)ccc21 [Compound B7] | < 0.1 |
| CCN1/C(=C/C=C2\CCCC(/C=C/C3=[N+](CC)c4ccc(C(F)(F)F)cc4C3(C)C)=C2Cl)C(C)(C)c2cc(C(F)(F)F)ccc21 [Compound A11] | ≥ 0.5 |
| CCN1/C(=C/C=C2\CCCC(/C=C/C3=[N+](CC)c4ccc(C#N)cc4C3(C)C)=C2Cl)C(C)(C)c2cc(C#N)ccc21 [Compound A12] | ≥ 0.5 |
| CN1\C(=C/C=C/C=C/C=C/C2=[N+](C)c3ccc(Cl)cc3C2(C)C)C(C)(C)c2cc(Cl)ccc21 [Compound A7] | ≥ 0.5 |
| CCN1/C(=C/C=C2\CCCC(/C=C/C3=[N+](CC)c4ccc(C(F)(F)F)cc4C3(C)C)=C2Cl)C(C)(C)c2cc(C(F)(F)F)ccc21 [Compound B11] | < 0.1 |

Source: patent publication US20100126386A1, “RADIATION-CURABLE COATING SUBSTANCES” (Basf Aktiengesellschaft, priority 2004, published 2010)
